At least one structure is not confirmed: it was looked up by name or label, or the drawing left a doubt.
Tested on: thermal stable β-glucosidase
Experiment: Glucosidase assay: light output of furimazine mono- or bis-glucoside pro-substrate with Nanoluc, with and without β-glucosidase
Assay type: biochemical
Conditions: for Back ground RLU: without β-glucosidase, Nanoluc; for Signal to Background: β-glucosidase vs no β-glucosidase
Experimental: To the solution of 50 μl of furimazine mono- or bis-glucoside compound (100 μM) in NanoGlo buffer and 50 μl of NanoGlo buffer containing 1 ng/mL Nanoluc was added 11 μl of thermal stable β-glucosidase (Sigma) in PBS with final concentration of 1 Unit/ml/μM, and the light output was measured over time. The background of pro-substrate was measured under same condition without β-glucosidase.
The synthesized coelenterazine analogues (compounds of formula (I)) were evaluated for their background and signal/background ratio.

OCC1OC(Oc2c(Cc3ccco3)nc3c(Cc4ccccc4)nc(-c4ccccc4)cn23)C(O)C(O)C1O [WZ-0261, β-D-glucose Furimazine]
Back ground RLU (Time 0 hr): 522 RLU | Signal to Background (Time 0 hr): 62,718 | Back ground RLU (Time 0.1 hr): 530 RLU | Signal to Background (Time 0.1 hr): 59,553 | Back ground RLU (Time 0.25 hr): 557 RLU | Signal to Background (Time 0.25 hr): 53,746 | Back ground RLU (Time 0.5 hr): 760 RLU | Signal to Background (Time 0.5 hr): 35,470 | Back ground RLU (Time 1 hr): 960 RLU | Signal to Background (Time 1 hr): 23,057 | Back ground RLU (Time 1.5 hr): 1114 RLU | Signal to Background (Time 1.5 hr): 16,545 | Back ground RLU (Time 2 hr): 1322 RLU | Signal to Background (Time 2 hr): 11,704 | Back ground RLU (Time 3 hr): 1521 RLU | Signal to Background (Time 3 hr): 7,426 | Back ground RLU (Time 4 hr): 1580 RLU | Signal to Background (Time 4 hr): 5,940 | Back ground RLU (Time 5 hr): 1729 RLU | Signal to Background (Time 5 hr): 4,284 | Back ground RLU (Time 6 hr): 1653 RLU | Signal to Background (Time 6 hr): 3,515 | Back ground RLU (Time 16 hr): 584 RLU | Signal to Background (Time 16 hr): 1,581

From patent US10316070B2, “Dual protected pro-coelenterazine substrates” (PROMEGA CORPORATION, priority 2016, dated 2019)
